Experimental data as given in PMC7950113.
Results are given in words; binding and its absence hold for the method and conditions named. In cells and extracts the contact can be indirect. These calls come from enrichment with a bait or labelling near it, and not all partners need be listed.

The chains behind the UniProt entries cited, without tags or fusion partners. Where a name states a change or a piece, a line headed by the entry shows the natural chain unless it says otherwise. A line that says so, or that is headed by a name, gives the form on record, which may keep a tag or linker. Residues count along the entry.
FLAG-tagged thyroglobulin, WT (P01266, residues 20-2768): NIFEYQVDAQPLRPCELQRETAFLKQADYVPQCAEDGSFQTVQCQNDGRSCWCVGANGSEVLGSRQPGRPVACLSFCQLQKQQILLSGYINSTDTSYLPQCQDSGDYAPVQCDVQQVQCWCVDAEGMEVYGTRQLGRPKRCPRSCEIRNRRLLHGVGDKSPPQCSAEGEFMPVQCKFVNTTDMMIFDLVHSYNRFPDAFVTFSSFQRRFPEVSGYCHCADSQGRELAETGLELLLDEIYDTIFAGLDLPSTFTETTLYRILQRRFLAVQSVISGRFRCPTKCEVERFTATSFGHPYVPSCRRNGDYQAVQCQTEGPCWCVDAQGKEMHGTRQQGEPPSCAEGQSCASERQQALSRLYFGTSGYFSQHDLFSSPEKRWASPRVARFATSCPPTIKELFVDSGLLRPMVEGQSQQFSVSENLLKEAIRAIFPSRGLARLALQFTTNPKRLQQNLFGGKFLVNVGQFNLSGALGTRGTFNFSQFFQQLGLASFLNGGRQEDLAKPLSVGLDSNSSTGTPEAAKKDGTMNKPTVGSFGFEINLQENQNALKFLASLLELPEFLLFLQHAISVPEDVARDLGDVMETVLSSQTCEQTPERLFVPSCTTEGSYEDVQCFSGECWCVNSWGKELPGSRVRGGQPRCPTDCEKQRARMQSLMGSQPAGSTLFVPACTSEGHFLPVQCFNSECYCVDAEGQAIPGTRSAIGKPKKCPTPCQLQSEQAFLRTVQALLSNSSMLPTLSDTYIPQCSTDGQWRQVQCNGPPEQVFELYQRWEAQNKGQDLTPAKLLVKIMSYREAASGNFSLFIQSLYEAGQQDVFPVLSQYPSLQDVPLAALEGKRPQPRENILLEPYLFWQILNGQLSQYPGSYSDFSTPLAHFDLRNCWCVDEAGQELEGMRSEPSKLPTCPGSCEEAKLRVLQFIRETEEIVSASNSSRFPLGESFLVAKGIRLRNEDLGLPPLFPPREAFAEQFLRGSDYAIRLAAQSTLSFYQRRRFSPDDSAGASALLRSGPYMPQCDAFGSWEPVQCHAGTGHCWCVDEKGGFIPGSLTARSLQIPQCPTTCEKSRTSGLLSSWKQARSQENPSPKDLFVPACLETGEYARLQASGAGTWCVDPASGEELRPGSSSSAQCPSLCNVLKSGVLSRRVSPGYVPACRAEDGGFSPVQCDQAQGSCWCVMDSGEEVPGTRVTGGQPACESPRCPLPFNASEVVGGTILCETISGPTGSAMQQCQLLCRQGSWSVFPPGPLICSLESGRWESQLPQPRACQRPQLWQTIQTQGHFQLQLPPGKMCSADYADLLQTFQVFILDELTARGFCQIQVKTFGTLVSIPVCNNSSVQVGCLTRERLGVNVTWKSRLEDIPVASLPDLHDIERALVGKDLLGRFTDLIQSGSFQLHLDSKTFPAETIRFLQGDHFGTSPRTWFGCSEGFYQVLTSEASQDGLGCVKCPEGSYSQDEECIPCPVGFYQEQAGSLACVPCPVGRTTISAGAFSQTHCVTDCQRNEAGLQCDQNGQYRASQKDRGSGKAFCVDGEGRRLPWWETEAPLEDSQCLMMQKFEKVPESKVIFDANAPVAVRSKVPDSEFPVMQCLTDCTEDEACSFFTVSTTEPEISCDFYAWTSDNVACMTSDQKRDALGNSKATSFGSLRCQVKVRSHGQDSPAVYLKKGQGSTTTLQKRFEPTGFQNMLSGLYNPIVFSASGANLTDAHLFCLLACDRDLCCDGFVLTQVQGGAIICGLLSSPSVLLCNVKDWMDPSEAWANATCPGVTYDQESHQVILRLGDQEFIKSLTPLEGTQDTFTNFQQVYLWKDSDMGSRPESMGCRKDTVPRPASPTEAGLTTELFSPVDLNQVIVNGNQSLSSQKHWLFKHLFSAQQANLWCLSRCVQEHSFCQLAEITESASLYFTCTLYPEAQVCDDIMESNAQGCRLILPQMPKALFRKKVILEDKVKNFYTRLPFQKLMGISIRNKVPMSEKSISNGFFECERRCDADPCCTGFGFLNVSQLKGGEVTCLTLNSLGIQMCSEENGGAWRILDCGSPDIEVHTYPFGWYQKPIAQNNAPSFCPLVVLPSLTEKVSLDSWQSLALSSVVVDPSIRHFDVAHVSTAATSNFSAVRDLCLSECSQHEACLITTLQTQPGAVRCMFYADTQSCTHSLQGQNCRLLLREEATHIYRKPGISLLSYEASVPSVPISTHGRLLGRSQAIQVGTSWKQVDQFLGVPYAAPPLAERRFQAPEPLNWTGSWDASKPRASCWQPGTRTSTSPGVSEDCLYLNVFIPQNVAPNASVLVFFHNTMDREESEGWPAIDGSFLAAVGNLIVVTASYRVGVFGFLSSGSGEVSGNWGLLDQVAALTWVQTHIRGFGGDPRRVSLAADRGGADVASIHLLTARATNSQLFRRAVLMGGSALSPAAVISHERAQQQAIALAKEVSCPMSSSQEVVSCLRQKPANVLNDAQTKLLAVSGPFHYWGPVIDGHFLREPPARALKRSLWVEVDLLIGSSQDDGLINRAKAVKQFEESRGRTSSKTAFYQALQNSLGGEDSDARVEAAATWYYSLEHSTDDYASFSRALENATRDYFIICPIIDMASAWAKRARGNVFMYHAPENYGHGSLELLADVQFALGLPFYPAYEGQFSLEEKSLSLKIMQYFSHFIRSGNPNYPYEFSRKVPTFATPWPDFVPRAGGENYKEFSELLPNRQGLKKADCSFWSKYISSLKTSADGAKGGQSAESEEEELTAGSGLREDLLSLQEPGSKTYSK
UniProt P14625, residues 22-803: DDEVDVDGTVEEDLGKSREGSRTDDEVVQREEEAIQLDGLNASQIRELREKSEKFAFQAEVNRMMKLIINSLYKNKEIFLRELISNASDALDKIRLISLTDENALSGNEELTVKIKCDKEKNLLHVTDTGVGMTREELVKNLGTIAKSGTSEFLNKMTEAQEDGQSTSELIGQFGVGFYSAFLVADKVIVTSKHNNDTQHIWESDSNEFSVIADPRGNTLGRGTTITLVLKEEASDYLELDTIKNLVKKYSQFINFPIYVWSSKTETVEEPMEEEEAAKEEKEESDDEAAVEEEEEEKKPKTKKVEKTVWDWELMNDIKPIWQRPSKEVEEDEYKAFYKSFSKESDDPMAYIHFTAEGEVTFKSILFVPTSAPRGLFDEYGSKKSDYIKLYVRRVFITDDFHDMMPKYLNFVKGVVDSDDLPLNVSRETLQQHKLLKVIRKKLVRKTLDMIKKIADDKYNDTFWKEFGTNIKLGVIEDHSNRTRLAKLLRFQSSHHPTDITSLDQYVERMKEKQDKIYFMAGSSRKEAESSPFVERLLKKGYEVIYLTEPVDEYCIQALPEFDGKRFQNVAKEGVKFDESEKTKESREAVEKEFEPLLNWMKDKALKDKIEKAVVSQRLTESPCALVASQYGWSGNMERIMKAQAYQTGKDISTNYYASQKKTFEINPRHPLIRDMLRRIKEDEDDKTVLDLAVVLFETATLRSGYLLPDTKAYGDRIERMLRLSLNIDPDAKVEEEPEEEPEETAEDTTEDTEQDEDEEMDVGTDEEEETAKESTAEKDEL
UniProt Q9NYU2, residues 43-1555: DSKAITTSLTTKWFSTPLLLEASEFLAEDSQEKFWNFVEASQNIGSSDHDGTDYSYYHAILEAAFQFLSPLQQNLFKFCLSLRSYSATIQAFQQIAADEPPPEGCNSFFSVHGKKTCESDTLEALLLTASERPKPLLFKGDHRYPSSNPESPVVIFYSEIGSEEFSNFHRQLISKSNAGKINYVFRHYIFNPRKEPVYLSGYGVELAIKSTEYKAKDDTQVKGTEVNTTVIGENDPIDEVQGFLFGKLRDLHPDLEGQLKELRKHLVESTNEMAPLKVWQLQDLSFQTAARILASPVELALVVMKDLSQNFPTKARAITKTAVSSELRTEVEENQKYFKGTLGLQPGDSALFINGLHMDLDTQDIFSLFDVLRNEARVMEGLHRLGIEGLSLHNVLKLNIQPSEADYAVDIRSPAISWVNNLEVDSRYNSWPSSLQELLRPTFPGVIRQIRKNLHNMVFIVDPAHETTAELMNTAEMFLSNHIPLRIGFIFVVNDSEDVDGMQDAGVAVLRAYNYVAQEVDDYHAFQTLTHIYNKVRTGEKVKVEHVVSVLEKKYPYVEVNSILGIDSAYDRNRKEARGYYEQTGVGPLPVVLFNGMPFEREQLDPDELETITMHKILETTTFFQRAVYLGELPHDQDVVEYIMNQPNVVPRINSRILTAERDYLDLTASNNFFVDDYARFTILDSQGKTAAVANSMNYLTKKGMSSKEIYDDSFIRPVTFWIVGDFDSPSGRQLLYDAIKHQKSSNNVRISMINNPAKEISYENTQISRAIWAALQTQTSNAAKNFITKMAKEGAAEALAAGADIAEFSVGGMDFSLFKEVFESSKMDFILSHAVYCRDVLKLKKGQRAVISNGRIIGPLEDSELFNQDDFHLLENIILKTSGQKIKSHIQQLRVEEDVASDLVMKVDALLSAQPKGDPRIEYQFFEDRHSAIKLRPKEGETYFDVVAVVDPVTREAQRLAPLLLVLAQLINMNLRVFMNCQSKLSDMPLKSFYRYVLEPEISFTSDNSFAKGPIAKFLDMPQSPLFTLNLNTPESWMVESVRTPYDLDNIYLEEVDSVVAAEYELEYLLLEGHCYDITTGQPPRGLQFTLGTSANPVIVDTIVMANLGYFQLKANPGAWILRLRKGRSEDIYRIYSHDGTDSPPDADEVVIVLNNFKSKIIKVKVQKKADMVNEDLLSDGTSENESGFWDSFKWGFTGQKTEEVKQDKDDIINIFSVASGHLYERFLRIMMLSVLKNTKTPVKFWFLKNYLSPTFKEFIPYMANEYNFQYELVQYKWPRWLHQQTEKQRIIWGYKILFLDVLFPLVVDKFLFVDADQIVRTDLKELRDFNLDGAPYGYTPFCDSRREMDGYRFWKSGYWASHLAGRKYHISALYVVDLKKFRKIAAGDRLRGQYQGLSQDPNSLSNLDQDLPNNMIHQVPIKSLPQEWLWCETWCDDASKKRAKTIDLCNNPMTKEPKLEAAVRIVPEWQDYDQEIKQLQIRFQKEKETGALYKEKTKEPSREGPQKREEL
UniProt P11021, residues 19-654: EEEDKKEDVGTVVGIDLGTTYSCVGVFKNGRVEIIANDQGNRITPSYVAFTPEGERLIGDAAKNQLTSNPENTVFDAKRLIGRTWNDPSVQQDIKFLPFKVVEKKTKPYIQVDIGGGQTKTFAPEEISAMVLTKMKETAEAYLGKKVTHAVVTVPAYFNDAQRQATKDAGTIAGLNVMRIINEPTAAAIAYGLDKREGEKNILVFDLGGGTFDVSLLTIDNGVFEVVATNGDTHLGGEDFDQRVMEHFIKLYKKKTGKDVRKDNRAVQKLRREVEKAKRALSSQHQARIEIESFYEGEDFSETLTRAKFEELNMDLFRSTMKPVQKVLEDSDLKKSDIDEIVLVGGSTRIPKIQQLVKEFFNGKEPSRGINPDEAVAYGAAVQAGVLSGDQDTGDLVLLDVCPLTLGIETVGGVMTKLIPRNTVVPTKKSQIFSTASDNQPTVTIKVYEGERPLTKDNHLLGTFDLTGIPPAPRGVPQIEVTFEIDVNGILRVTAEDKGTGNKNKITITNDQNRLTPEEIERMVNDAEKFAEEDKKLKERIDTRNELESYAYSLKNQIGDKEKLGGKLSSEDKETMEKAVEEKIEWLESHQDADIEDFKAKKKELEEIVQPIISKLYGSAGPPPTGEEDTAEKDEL
UniProt Q9UBS4, residues 23-358: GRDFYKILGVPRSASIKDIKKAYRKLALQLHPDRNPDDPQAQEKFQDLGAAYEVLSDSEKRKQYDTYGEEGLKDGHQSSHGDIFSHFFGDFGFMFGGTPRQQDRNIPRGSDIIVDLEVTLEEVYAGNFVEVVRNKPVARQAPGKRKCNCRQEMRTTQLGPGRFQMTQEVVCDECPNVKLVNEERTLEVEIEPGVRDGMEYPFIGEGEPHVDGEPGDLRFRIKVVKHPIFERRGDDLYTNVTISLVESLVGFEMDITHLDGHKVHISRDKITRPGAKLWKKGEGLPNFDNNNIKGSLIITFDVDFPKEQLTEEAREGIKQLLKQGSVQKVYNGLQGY
UniProt P30101, residues 25-505: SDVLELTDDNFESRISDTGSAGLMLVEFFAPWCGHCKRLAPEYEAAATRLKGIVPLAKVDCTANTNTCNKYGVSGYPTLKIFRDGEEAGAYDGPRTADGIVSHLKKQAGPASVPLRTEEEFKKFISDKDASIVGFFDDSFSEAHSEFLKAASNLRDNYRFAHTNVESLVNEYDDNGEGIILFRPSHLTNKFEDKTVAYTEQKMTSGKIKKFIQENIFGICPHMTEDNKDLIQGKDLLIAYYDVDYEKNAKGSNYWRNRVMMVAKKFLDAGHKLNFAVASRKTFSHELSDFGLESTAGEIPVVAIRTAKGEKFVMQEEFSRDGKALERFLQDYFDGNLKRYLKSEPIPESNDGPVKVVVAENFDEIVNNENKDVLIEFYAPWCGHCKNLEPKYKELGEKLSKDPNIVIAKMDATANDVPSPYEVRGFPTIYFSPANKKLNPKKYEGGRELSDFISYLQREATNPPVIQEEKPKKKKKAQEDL

Assays:
Experiment in all cases: affinity purification with mass spectrometry; FLAG-Tg variants transiently expressed in HEK293 cells; cells cross-linked with 0.5 mM DSP, RIPA lysate, M2 anti-flag agarose or G1 Anti-DYKDDDDK resin overnight at 4 °C, four RIPA washes; TMT sixplex LC-MS/MS against mock AP (untagged Tg, EGFP or tdTomato)
[1] = target: FLAG-tagged thyroglobulin A2234D (human) (UniProt P01266)
[2] = target: FLAG-tagged thyroglobulin C1264R (human) (UniProt P01266)
[3] = target: FLAG-tagged thyroglobulin G2341R (human) (UniProt P01266)
[4] = target: FLAG-tagged thyroglobulin L2284P (human) (UniProt P01266)
[5] = target: FLAG-tagged thyroglobulin, WT (human) (UniProt P01266)

Row | binding [1] | binding [2] | binding [3] | binding [4] | binding [5] | Substance
1 | binds | binds | binds | binds | binds | 94 kDa glucose-regulated protein (from UniProt P14625 22-803)
2 |  |  |  |  | binds | TUBA4A (from UniProt P68366 1-448)
3 | binds | binds | binds | binds | binds | UDP-glucose glycoprotein glucosyltansferase 1 (from UniProt Q9NYU2 43-1555)
4 | binds | binds | binds | binds | binds | binding immunoglobulin protein (from UniProt P11021 19-654)
5 |  |  |  |  | binds | calnexin (from UniProt P27824 21-592)
6 | binds |  |  |  | binds | protein disulfide isomerase family A member 9 (from UniProt P30040 33-261)

Further lines, the substance ahead of its results:

Row | Substance | binding [1] | binding [2] | binding [3] | binding [4] | binding [5]
7 | ARHGAP21 (from UniProt Q5T5U3 1-1958) | binds |  |  |  | 
8 | DnaJ heat shock protein family member B11 (from UniProt Q9UBS4 23-358) | binds | binds | binds | binds | binds
9 | PLEC (from UniProt Q15149 1-4684) |  |  |  |  | binds
10 | Protein disulfide isomerase family A member 1 (from UniProt P07237 18-508) |  |  |  | binds | binds
11 | calreticulin (from UniProt P27797 18-417) | binds | binds | binds | binds | binds
12 | protein disulfide isomerase family A member 3 (from UniProt P30101 25-505) | binds | binds | binds | binds | binds
13 | thioredoxin domain containing 5 (from UniProt Q8NBS9 33-432) |  |  |  |  | binds
14 | valosin containing protein (from UniProt P55072 1-806) | binds | binds | binds | binds | binds
